Laboratory results taken from patent publication EP4725957A1 (Institute of Medicinal Biotechnology, Chinese Academy of …, priority 2023, dated 2024).

Experiment: general procedure: Fmoc solid-phase peptide synthesis; 2-chlorotrityl chloride resin (2-Cl-Trt, 0.5 mmol/g)
Settings: whole synthesis; for final HPLC purity: area integration of the chromatogram; for final HPLC purity / isolated yield: scale of the general procedure 0.5 mmol; for isolated yield: based on 0.5 mmol of 2-Cl-Trt resin

Row | Substance | isolated mass [mg] | final HPLC purity [%] | isolated yield [%] | isolated mass (scale 0.5 mmol) [mg]
1 | PEPTIDE1{[6MeHep].[Dab].T.[Dap].[Dab].[Dab].[D-Phe(4-CH2SO3H)].T.[Dab].[Dab].T}$PEPTIDE1,PEPTIDE1,5:R3-11:R2$$$V2.0 | 260 | >99.0 | 41.3 | –
2 | PEPTIDE1{[6-methylheptanoyl].[Dab(CH2SO3H)].T.[dS].[Dab].[Dab].[dF].T.[Dab].[Dab].T}$PEPTIDE1,PEPTIDE1,5:R3-11:R2$$$V2.0 | 245 | >99.0 | 38.9 | –
3 | PEPTIDE1{[6-methylheptanoyl].[Dab].T.[Dap(CH2SO3H)].[Dab].[Dab].[dF].T.[Dab].[Dab].T}$PEPTIDE1,PEPTIDE1,5:R3-11:R2$$$V2.0 | 240 | >99.0 | 38.2 | –
4 | PEPTIDE1{[6-methylheptanoyl].[Dab].T.[dS].[Dab].[Dab].[dF].T.[Dab].[Dab(CH2SO3H)].T}$PEPTIDE1,PEPTIDE1,5:R3-11:R2$$$V2.0 | 260 | >99.0 | 41.3 | –
5 | PEPTIDE1{[6-methylheptanoyl].[Dab].[Thr(CH2SO3H)].[dS].[Dab].[Dab].[dF].T.[Dab].[Dab].T}$PEPTIDE1,PEPTIDE1,5:R3-11:R2$$$V2.0 | 245 | >99.0 | 38.9 | –
6 | PEPTIDE1{[6MeHep].[Dab(CH2SO3H)].T.[Dap].[Dab].[Dab].[dF].T.[Dab].[Dab].T}$PEPTIDE1,PEPTIDE1,5:R3-11:R2$$$V2.0 | 245 | >99.0 | 38.9 | –
7 | PEPTIDE1{[6-methylheptanoyl].[Dab].T.[dS].[Dab].[Dab].[dF].T.[Dab].[Dab].[Thr(CH2SO3H)]}$PEPTIDE1,PEPTIDE1,5:R3-11:R2$$$V2.0 | 250 | >99.0 | 39.7 | –
8 | PEPTIDE1{[Nonanoyl].[Dab].T.[D-Orn].[Dab].[Dab].[dF].L.[Dab].[Dab].T}$PEPTIDE1,PEPTIDE1,5:R3-11:R2$$$V2.0 | – | >99.0 | 41.9 | 255
9 | PEPTIDE1{[6-methylheptanoyl].[Dab].T.[dS].[Dab].[Dab].[dF].[Thr(CH2SO3H)].[Dab].[Dab].T}$PEPTIDE1,PEPTIDE1,5:R3-11:R2$$$V2.0 | 248 | >99.0 | 39.4 | –
10 | PEPTIDE1{[6MeHep].[Dab].T.[Dap].[Dab].[Dab].[dF].T.[Dab].[Dab(CH2SO3H)].T}$PEPTIDE1,PEPTIDE1,5:R3-11:R2$$$V2.0 | 260 | >99.0 | 41.3 | –
11 | PEPTIDE1{[6-methylheptanoyl].[Dab].T.[D-Ser(CH2SO3H)].[Dab].[Dab].[dF].T.[Dab].[Dab].T}$PEPTIDE1,PEPTIDE1,5:R3-11:R2$$$V2.0 | 240 | >99.0 | 38.1 | –
12 | PEPTIDE1{[6-methylheptanoyl].[Dab].[Thr(CH2SO3H)].[Dap].[Dab].[Dab].[dF].T.[Dab].[Dab].T}$PEPTIDE1,PEPTIDE1,5:R3-11:R2$$$V2.0 | 245 | >99.0 | 38.9 | –
13 | PEPTIDE1{[6-methylheptanoyl].[Dab].T.[dS].[Dab].[Dab].[D-Phe(4-CH2SO3H)].T.[Dab].[Dab].T}$PEPTIDE1,PEPTIDE1,5:R3-11:R2$$$V2.0 | 260 | >99.0 | 41.3 | –
14 | PEPTIDE1{[6-methylheptanoyl].[Dab].T.[dS].[Dab].[Dab].[dF].T.[Dab(CH2SO3H)].[Dab].T}$PEPTIDE1,PEPTIDE1,5:R3-11:R2$$$V2.0 | 250 | >99.0 | 39.7 | –
15 | PEPTIDE1{[6-methylheptanoyl].[Dab].T.[Dap].[Dab].[Dab].[dF].T.[Dab].[Dab].[Thr(CH2SO3H)]}$PEPTIDE1,PEPTIDE1,5:R3-11:R2$$$V2.0 | 250 | >99.0 | 39.7 | –
16 | PEPTIDE1{[6-methylheptanoyl].[Dab].T.[Dap].[Dab].[Dab].[dF].[Thr(CH2SO3H)].[Dab].[Dab].T}$PEPTIDE1,PEPTIDE1,5:R3-11:R2$$$V2.0 | 248 | >99.0 | 39.4 | –
17 | PEPTIDE1{[6-methylheptanoyl].[Dab].T.[dS].[Dab].[Dab(CH2SO3H)].[dF].T.[Dab].[Dab].T}$PEPTIDE1,PEPTIDE1,5:R3-11:R2$$$V2.0 | 248 | >99.0 | 39.4 | –
18 | PEPTIDE1{[6MeHep].[Dab].T.[Dap].[Dab].[Dab(CH2SO3H)].[dF].T.[Dab].[Dab].T}$PEPTIDE1,PEPTIDE1,5:R3-11:R2$$$V2.0 | 248 | >99.0 | 39.4 | –
19 | PEPTIDE1{[6MeHep].[Dab].T.[Dap].[Dab].[Dab].[dF].T.[Dab(CH2SO3H)].[Dab].T}$PEPTIDE1,PEPTIDE1,5:R3-11:R2$$$V2.0 | 250 | >99.0 | 39.7 | –

HELM strings list residues between dots; [ac] is acetyl, [am] amide, other brackets name non-standard units.
